Data published in PubChem BioAssay AID1671190 (National Center for Advancing Translational Sciences (NCATS), 2021).
The campaign covered roughly 580,000 compounds. About 6,100 (1.1%) were called active. The shares of active, inactive and inconclusive entries below differ from those in the screen. The call rests on the fitted dose curve; in most records, active means well fitted inhibition curve with a large enough effect; inconclusive means small, poorly fitted or top-dose-only effect, or another doubt; inactive means no such curve, though single readings can be large or run the other way. Potencies of inconclusive entries are doubtful fits and often do not repeat.

The chains behind the UniProt entries cited, without tags or fusion partners. Where a name states a change or a piece, a line headed by the entry shows the natural chain unless it says otherwise.
UniProt P18054: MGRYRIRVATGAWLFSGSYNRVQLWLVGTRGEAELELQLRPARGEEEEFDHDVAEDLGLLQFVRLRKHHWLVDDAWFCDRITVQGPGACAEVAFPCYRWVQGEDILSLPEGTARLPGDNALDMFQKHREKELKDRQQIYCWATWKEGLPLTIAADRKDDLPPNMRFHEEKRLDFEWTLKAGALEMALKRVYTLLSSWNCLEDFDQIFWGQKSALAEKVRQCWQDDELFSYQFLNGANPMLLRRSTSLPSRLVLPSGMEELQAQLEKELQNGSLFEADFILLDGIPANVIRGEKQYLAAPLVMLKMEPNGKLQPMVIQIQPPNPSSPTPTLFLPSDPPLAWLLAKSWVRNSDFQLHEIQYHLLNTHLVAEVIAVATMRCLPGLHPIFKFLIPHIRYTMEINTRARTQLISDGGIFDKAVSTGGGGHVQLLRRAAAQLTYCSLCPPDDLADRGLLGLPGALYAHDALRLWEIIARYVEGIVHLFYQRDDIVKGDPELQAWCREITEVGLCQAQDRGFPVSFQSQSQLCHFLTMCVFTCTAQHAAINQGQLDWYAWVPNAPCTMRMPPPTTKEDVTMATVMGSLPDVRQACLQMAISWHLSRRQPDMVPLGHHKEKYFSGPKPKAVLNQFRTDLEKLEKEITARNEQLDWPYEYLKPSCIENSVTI

target: Polyunsaturated fatty acid lipoxygenase ALOX12 (Homo sapiens) (UniProt P18054); test: Primary qHTS assay for inhibitors of human arachidonate 12S-lipoxygenase (ALOX12): Round 2; settings: purified 12hLO, xylenol orange hydroperoxide absorbance; activity change, negative = inhibition: at 108 µM (top of the series) unless noted
In short: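 Hydroperoxide product was detected by ferrous iron/xylenol orange as the 573 to 405 nm absorbance ratio. Arachidonic acid at 40 uM (final) was turned over for 30 min at room temperature by 150 nM human 12hLO, pH 7.0 Hepes buffer, after 15 min compound preincubation.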
On the % scale 0 is the no-effect control and ±100 the full control effect; potency means the concentration at half of the fitted maximal effect.

SMILES | Potency | activity change, negative = inhibition
CCN(C)S(=O)(=O)c1cc2c(cc1Cl)Oc1cc(C)ccc1NC2=O | inactive | 
COc1cccc(-c2nc(-c3ccc(Br)cc3)no2)c1OC | inactive | 
COc1ccc(C2c3c(-c4ccccc4O)n[nH]c3C(=O)N2Cc2ccco2)cc1 (centres undefined) | inactive | 
CCOC(=O)C1=C(CN2CCN(c3ccccc3)CC2)NC(=O)NC1c1ccc(C)cc1 (centres undefined) | inconclusive: 89.1 µM [inhibitor, partial curve, poor fit] | 
CN(C(=O)COC(=O)c1cc[n+]([O-])cc1)c1ccccc1 | inconclusive: 100 µM [inhibitor, single point] | 
O=C(CCCSc1nc2ccccc2s1)Nc1ccc(F)cc1F | inconclusive: 100 µM [inhibitor, single point] | 
CSCC[C@@H]1NC(=O)c2cc(NC(=O)Cc3ccc4c(c3)OCC4)ccc2NC1=O | inconclusive: 39.8 µM [inhibitor, full curve] | 
Cc1cc(N2CCN(C)CC2)nc2ccc(NC(=O)CCC(=O)NCCCOC(C)C)cc12 | inconclusive: 126 µM [inhibitor, single point] | 
Cc1cnc(C(=O)NC2CC(C)(C)Cc3c2cnn3-c2ccccc2)cn1 (centres undefined) | inconclusive: 100 µM [inhibitor, single point] | 
Cc1cccc(NC(=O)CSc2cccc3cccnc23)c1 | inconclusive: 10 µM [inhibitor, partial curve, poor fit] | 
C[C@H]1COC(=O)CCC/C=C\C[C@H](CC(=O)N(CCO)Cc2ccccc2)C(=O)N1 | inactive | 
CCN(CC)S(=O)(=O)c1cccc(C(=O)NC(c2ccc3c(c2)OCCO3)C(C)C)c1 (centres undefined) | inactive | 
Cc1c(C(=O)N(CCc2cccs2)Cc2cccs2)[nH]c2c1C(=O)CC(C)(C)C2 | inconclusive: 112 µM [inhibitor, single point] | 
CC(=O)NC(C(=O)O)=C(Cl)Cl | inconclusive: 50.1 µM [inhibitor, partial curve, poor fit] | 
CN(CCc1ccccc1)C(=O)c1ccc(NC(=O)Cc2ccc(NC(=O)C3CCN(C(=O)C4CCCC4)CC3)cc2)cc1 | inconclusive: 31.6 µM [inhibitor, single point] | 
CC(C)CC(c1nnnn1Cc1ccco1)N1CCN(c2cccc(Cl)c2)CC1 (centres undefined) | inconclusive: 20 µM [inhibitor, partial curve, poor fit] | 
CCCCn1c(-c2ccc(S(=O)(=O)N3CCOCC3)cc2)csc1=Nc1ccccc1 | inconclusive: 35.5 µM [inhibitor, partial curve] | 
COc1ccc(N2C(=O)CC(Sc3nnc(-c4ccccc4F)n3C)C2=O)cc1 (centres undefined) | inactive | 
C/C=C(\C)C(=O)Nc1cccc(C2=NOC3(C2)C[C@H](C(N)=O)N(C(=O)c2cc([N+](=O)[O-])cc([N+](=O)[O-])c2)C3)c1 (some centres undefined) | inconclusive: 5.62 µM [inhibitor, full curve, poor fit] | 
CCCN(CC1CCCO1)C(=O)c1csc2nc(-c3cccc(C(F)(F)F)c3)cn12 (centres undefined) | inactive | 

SMILES | Potency | activity change, negative = inhibition
CCCCNC(=O)Nc1ccccc1CC(N)=O | inconclusive: 112 µM [inhibitor, single point] | 
Cc1c(C(=O)Nc2ccccc2Br)oc2ccc(S(=O)(=O)N3CCCCC3)cc12 |  | inconclusive: -31% [inhibitor]
O=C1CC(/C=C/c2ccc(Cl)cc2)=Nc2ccccc2N1 | inconclusive: 44.7 µM [inhibitor, partial curve, poor fit] | 
O=C(CCCn1c(=O)c2cccn2c2cccnc21)NCCc1ccc(Cl)cc1 | inconclusive: 158 µM [inhibitor, partial curve, poor fit] | 
COc1ccc(NS(=O)(=O)c2ccc3oc(SCC(N)=O)nc3c2)cc1 | inconclusive: 126 µM [inhibitor, single point] | 
Fc1ccc(NC(=S)NN=C2CCCCCC2)cc1 | inconclusive: 56.2 µM [inhibitor, partial curve, poor fit] | 
COc1ccc(-c2nn(C)c3sc(C(=O)N4CCN(c5cccc(C)c5C)CC4)cc23)cc1OC | inconclusive: 158 µM [inhibitor, partial curve, poor fit] | 
Cc1ccc(N2C(=O)c3cccc4c([N+](=O)[O-])ccc(c34)C2=O)c2cccnc12 | inactive | 
Cc1ccc(OCc2n[nH]c(=S)n2-c2ccc(Br)cc2)cc1 | inconclusive: 0.282 µM [inhibitor, full curve, poor fit] | 
COc1ccccc1CNC(=O)Cc1c(C)c2ccc(OC)c(OC)c2oc1=O | inactive | 
O=c1cc(-c2cccc(Br)c2)oc2ccc(Cl)cc12 | inconclusive: 17.8 µM [inhibitor, partial curve, poor fit] | 
O=C(c1ccc([N+](=O)[O-])cc1Cl)N1CCN(c2ccccn2)CC1 | inconclusive: 100 µM [inhibitor, partial curve, poor fit] | 
Cc1ccc(S(=O)(=O)N2CC(C(=O)NC3CCCCC3)C3(CCOCC3)C2)cc1F (centres undefined) | inconclusive: 5.01 µM [inhibitor, partial curve, poor fit] | 
COc1cc(C(=O)/C=C/c2ccc(Cl)cc2Cl)ccc1OCC(=O)O | inconclusive: 44.7 µM [inhibitor, partial curve, poor fit] | 
CNS(=O)(=O)c1cccc(C(=O)NCC2(c3ccccc3)CCC2)c1 | inconclusive: 0.224 µM [inhibitor, single point] | 
Cc1ccccc1C(=O)NC(=S)Nc1ccc(S(=O)(=O)N2CCOCC2)cc1 | inconclusive: 39.8 µM [inhibitor, partial curve] | 
COc1ccc(S(=O)(=O)NC(=O)C2(C)CCN2C(=O)CC2CCCC2)cc1 (centres undefined) | inconclusive: 7.94 µM [inhibitor, full curve, poor fit] | 
CCCCCCOc1ccc(/C=C(/C#N)C(=O)c2ccccc2)cc1 | inconclusive: 0.447 µM [inhibitor, full curve, poor fit] | 
COCOCCn1cc(CN2CCS(=O)(=O)N(Cc3ccc(-c4cccc(CO)c4)cc3)C(CC(C)C)C2=O)nn1 (centres undefined) | inconclusive: 141 µM [inhibitor, single point] | 

An excerpt from above in order of formula weight, ascending.
SMILES | Potency | activity change, negative = inhibition
CCCCNC(=O)Nc1ccccc1CC(N)=O | inconclusive: 112 µM [inhibitor, single point] | 
O=C(c1ccc([N+](=O)[O-])cc1Cl)N1CCN(c2ccccn2)CC1 | inconclusive: 100 µM [inhibitor, partial curve, poor fit] | 
Cc1ccccc1C(=O)NC(=S)Nc1ccc(S(=O)(=O)N2CCOCC2)cc1 | inconclusive: 39.8 µM [inhibitor, partial curve] | 
